Data as given in PubChem BioAssay AID743121 (NCATS, 2013)
The whole screen tested about 26,000 reagents; shown is a part drawn at random. Over the whole deposit, 167 (0.63%) are marked active. 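Calls are per gene from RSA p-values that are not deposited; an individual active-marked siRNA can sensitise only weakly.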 Reagents against one gene are numbered here.

Test: 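Partners whose loss is lethal together with topoisomerase I blockade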 (primary screen)
Cell system: MDA-MB-231 cells, a human breast cancer line
Knock-down reagent: single siRNA against human genes, 20 nM siRNA (0.8 pmol per well)
Duration: 120 h (drug added 48 h after transfection, read 72 h later)
Conditions: camptothecin 20 nM (about EC30) for 72 h; vehicle 0.1% DMSO in parallel plates
Measured: 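Cell viability by ATP luminescence (CellTiter-Glo) as % of non-targeting siRNA wells, and the log2 ratio of viability without drug over viability with camptothecin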
Scale: log2 vehicle/camptothecin viability: higher = stronger sensitisation to camptothecin; viability with camptothecin and viability without drug: higher = more viable cells
Active means: 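Each gene scored by redundant siRNA activity (RSA) over its individual siRNA ratios; a gene is called active at p < 0.001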

| target | reagent | log2 vehicle/camptothecin viability | viability with camptothecin (% of control) | viability without drug (% of control) | Call |
| --- | --- | --- | --- | --- | --- |
| TRIM39 | 1 | -0.00222 | 81.8 | 81.7 | inactive |
| TRIM39 | 2 | -0.209 | 57.7 | 50 | inactive |
| TRIM39 | 3 | 0.362 | 48.2 | 62 | inactive |
| SPINK1 | 1 | 0.097 | 69.8 | 74.7 | inactive |
| SPINK1 | 2 | 0.124 | 79.1 | 86.3 | inactive |
| SPINK1 | 3 | 0.473 | 34 | 47.3 | inactive |
| SPINK1 | 4 | -0.0643 | 99.4 | 95 | inactive |
| TNK2 | 1 | -0.777 | 47.8 | 27.9 | inactive |
| TNK2 | 2 | -0.382 | 84.5 | 64.8 | inactive |
| TNK2 | 3 | -0.249 | 18.1 | 15.3 | inactive |
| TNK2 | 4 | -0.114 | 95.7 | 88.4 | inactive |
| PRDX4 | 1 | -0.44 | 103 | 76.2 | inactive |
| PRDX4 | 2 | -0.091 | 121 | 113 | inactive |
| PRDX4 | 3 | -0.383 | 61.4 | 47.1 | inactive |
| KDM5B | 1 | 0.0353 | 107 | 110 | inactive |
| KDM5B | 2 | 0.016 | 107 | 108 | inactive |
| KDM5B | 3 | 0.0924 | 80.8 | 86.1 | inactive |
| KDM5B | 4 | -0.446 | 139 | 102 | inactive |
| SPRY1 | 1 | -0.0917 | 81 | 76 | inactive |
| SPRY1 | 2 | -0.61 | 56.1 | 36.8 | inactive |
| SPRY1 | 3 | -0.436 | 76.3 | 56.4 | inactive |
| TRMT2B | 1 | 0.113 | 60.4 | 65.3 | inactive |
| TRMT2B | 2 | 0.176 | 88.7 | 100 | inactive |
| TRMT2B | 3 | -0.199 | 102 | 88.5 | inactive |
| TRMT2B | 4 | 0.551 | 71.5 | 105 | inactive |
| HTATIP2 | 1 | -0.168 | 90.9 | 80.9 | inactive |
| HTATIP2 | 2 | -0.0935 | 103 | 96.1 | inactive |
| HTATIP2 | 3 | -0.183 | 90.8 | 80 | inactive |

Part of the list above, showing only “viability with camptothecin (% of control)”.
KDM5B #1 = 107
KDM5B #2 = 107
KDM5B #3 = 80.8
